The chains are these.
B1: il10ra_site1_normal_mot_HHH_b1_01880_000000285_0001_23_39_H_._HHH_b2_03857_0001_0000200012_0000001_0_af2pred_0001 (protein)
chain: SSSSSLEESVEFFLHLIEWALERNDPEAAEAAIEAAKRALRLANDEEAQEILEKLEEELNSSSSS
B2: il10ra_site1_sap_27_mot_39a7b8d0c4c3fc04bafbda6ce6101d3a_0001_1_af2_000000014_0001_34_48_H_._HHH_b2_05925_af2_0001_0000200001_0000001_0_0001_af2pred_0001 (protein)
chain: SSSSDDRERLLKRAAEAALEVYERVGDPRLKKVLELLLKLAREAGNEEVVELIEEFLEELSSSSS
B3: il10ra_site1_sap_13_mot_b26a303360aa2756ef5b79665ce52f45_0001_000000179_0001_1_11_H_._HHH_b1_06404_af2_0001_0002300049_0000001_0_0001_af2pred_0001 (protein)
chain: SSSSSEEEEKLKLSLRFLKFAIEQGSERSAEHLIRAIRELVERSNNEEAKERLEELERLLKSSSS
B4: il10ra_site1_sap_14_mot_HHH_b1_05088_af2_000000046_0001_20_36_H_._HHH_b2_02467_af2_0001_0000100003_0000001_0_0001_af2pred_dldesign_0_af2pred (protein)
chain: DVEAALAALRARLPPELRGRLDRVLALAEEKGYPRLIVVQAFEQLYAQTGDPALALENLEWHLSA
B5: il10ra_site1_normal_mot_HHH_b2_00984_000000042_0001_1_20_H_._HHH_b2_04018_0001_0000400032_0000001_0 (protein)
chain: SSSSDEVEERVEELLEEAKELFERGNPEEAAELLQEATQVAIENNNAELLQLVWKVIKELASSSS
B6: il10ra_site1_normal_mot_HHH_b2_07731_000000003_0001_42_56_H_._HHH_b2_03545_0001_0000300038_0000001_0 (protein)
chain: SSSSDEVQEEVERLLEEARELHEKGNPEEAYKLIREAAEIASENNDPEAQRLVVELSHKLFSSSS
B7: il10ra_site1_normal_mot_HHH_b2_00612_000000251_0001_1_14_H_._HHH_b1_05183_af2_0001_0000400024_0000001_0_af2pred_0001 (protein)
chain: SSSNDAAELIQEVAELVRRILEDPEHKEELEERIEELIEELREAGNRLAVLAAEYALKRVGSSSS
B8: il10ra_site1_sap_19_mot_HHH_b1_07835_af2_000000063_0001_1_16_H_._HHH_b1_04396_af2_0001_0000200002_0000001_0_0001 (protein)
chain: SSSSSDEELEERIKELLEELKEITDPKRFLKLMHEILRLIFRLGDWELLRELWEIAREWGSSSSS
B9: il10ra_site1_sap_21_mot_HHH_b1_02665_000000293_0001_1_18_H_._HHH_b1_06561_af2_0001_0000400012_0000002_0_0001_af2pred_0001 (protein)
chain: SSSSSSDEYREEVEELLEEAEENPEHAAELIHEAAKLAVEGQDPEALRLVIEFLRRVISSSSSSS
B10: il10ra_site1_normal_mot_HHH_b2_00033_000000036_0001_41_54_H_._HHH_b1_07799_af2_0001_0000500020_0000001_0 (protein)
chain: SSSSDEEAERLFQLVWELNKRGDEEELEELLKEIRELEKEDPRLRKSLRQAVFAAEQFLRSSSSS
B11: il10ra_site1_normal_mot_HHH_b2_00134_af2_000000008_0001_38_52_H_._189ca46c2b6f258b25d663752d8ad4bb_0001_1_af2_0001_0000100002_0000002_0 (protein)
chain: SEEQEELLQEILGDPELARLVLKSFERQEKQIGDPRQALRAVLAFLRLAGLVSPEQLRLIEEILR
B12: il10ra_site1_sap_12_mot_HHH_b1_03763_000000278_0001_22_38_H_._HHH_b2_04319_af2_0001_0000100007_0000001_0_0001 (protein)
chain: SSSSDERREIYELLREAVELDHDGNPEEAEKVLEEAERLAEEAGDDVLLVQVRYLLELLNSSSSS
B13: il10ra_site1_sap_14_mot_HHH_b1_06789_af2_000000041_0001_1_20_H_._HHH_b2_00587_0001_0000300020_0000001_0_0001 (protein)
chain: SSSSSSSKEEVEEILEEAEEIEDPEERIKVLLEALRVAWRHNDEEALRLVWEVVKKLGSSSSSSS
B14: il10ra_site1_normal_mot_HHH_b2_08186_000000021_0001_43_56_H_._HHH_b2_07548_0001_0000400022_0000001_1 (protein)
chain: SSSSSDEEEEEVEELLEEAKHIEDREKVRRLVMEAARIAYRASDPELLQLVWRVLKELTSSSSSS
B15: il10ra_site1_normal_mot_HHH_b2_04912_000000028_0001_1_20_H_._HHH_b1_06862_af2_0001_0000200023_0000001_0 (protein)
chain: SSSSDENREVLELSIEAFRLALRGNPEEAEELLEKALKLAEEAGNERIARQIRQLLQAINSSSSS
B16: il10ra_site1_normal_mot_HHH_b1_01821_000000158_0001_23_39_H_._HHH_b2_02225_0001_0000400032_0000001_0 (protein)
chain: SSSSSSSAEERVRELIEELEEVSEEERKQLLFEAVRFALEANNAELLQELWELFRKLASSSSSSS
B17: il10ra_site1_sap_11_mot_HHH_b2_06142_af2_000000101_0001_1_18_H_._HHH_b1_08444_af2_0001_0000500022_0000002_0_0001 (protein)
chain: SSSSSDEEELREEVERLLEEAEHIPDHREVAKLLQRATRLAIQLGDEELLQLVWRVVKKLSSSSS
B18: il10ra_site1_normal_mot_HHH_b2_00440_af2_000000075_0001_42_56_H_._HHH_b1_02927_af2_0001_0000100006_0000002_0_af2pred_0001 (protein)
chain: SSSSSEEEEEVRELLRQAEEALENNDVELLYRLLRRAVEIAAQINNQELLKLVLRVSREAISSSS
B19: il10ra_site1_sap_15_mot_HHH_b2_01447_af2_000000258_0001_1_20_H_._HHH_b2_06257_0001_0000200016_0000001_0_0001 (protein)
chain: SSSSNDEALELSQKAFHAALRGDFEQAEELLEEALELAREAGNEELAKQIERLLETVRRQGSSSS

The list shows a part of the results.

The target in this assay is il10ra, Q13651. Briefly: yeast display titration.
For the molecule B1, the “apparent Kd” value was “inactive: no binding seen”.

As for B2, the “apparent Kd” value was “inactive: no binding seen”.

B3: the “apparent Kd” value is “inactive: no binding seen”.

For B4, the “apparent Kd” value was “inactive: no binding seen”.

For the molecule B5, the “apparent Kd” value was “inactive: no binding seen”.

Turning to B6, the “apparent Kd” value is “inactive: no binding seen”.

In the case of B7, the “apparent Kd” value was “inactive: no binding seen”.

As to B8, the “apparent Kd” value is “inactive: no binding seen”.

For the molecule B9, the “apparent Kd” value is “inactive: no binding seen”.

On to B10, for which the “apparent Kd” value is “inactive: no binding seen”.

Regarding B11, the “apparent Kd” value was “inactive: no binding seen”.

For B12, the “apparent Kd” value is “inactive: no binding seen”.

On to B13, for which the “apparent Kd” value is “inactive: no binding seen”.

For B14, the “apparent Kd” value was “inactive: no binding seen”.

For B15, the “apparent Kd” value was “inactive: no binding seen”.

In the case of B16, the “apparent Kd” value is “inactive: no binding seen”.

Turning to B17, the “apparent Kd” value was “inactive: no binding seen”.

Take B18: the “apparent Kd” value was “inactive: no binding seen”.

Turning to B19, the “apparent Kd” value was “inactive: no binding seen”.

The record behind these values is article PMC10163288.
